Laboratory results published in US20250375528A1 (priority 2021, published 2025).
[ ]: non-standard residue; d: D form. ξ: configuration not given here. ξPhe(4-N(CH2CH2Cl)2) = NC(Cc1ccc(N(CCCl)CCCl)cc1)C(=O)O

Assay: general procedure: Fmoc solid-phase peptide synthesis; Wang resin; HBTU/HOBT/DIEA
Conditions: whole synthesis, 214 nm

## H-RQIKIWFWWRRMKWKK[ξPhe(4-N(CH2CH2Cl)2)]-OH
  final HPLC purity: above 95%
